Reference: publication PMC4772117
These are yes or no findings as the source states them, for the method shown. Binding seen in cells or lysates may run through a third protein. Some entries that bind do so weakly or less than the wild type.

By UniProt entry, the sequences of proteins in these tests, tags left out.
UniProt P03407: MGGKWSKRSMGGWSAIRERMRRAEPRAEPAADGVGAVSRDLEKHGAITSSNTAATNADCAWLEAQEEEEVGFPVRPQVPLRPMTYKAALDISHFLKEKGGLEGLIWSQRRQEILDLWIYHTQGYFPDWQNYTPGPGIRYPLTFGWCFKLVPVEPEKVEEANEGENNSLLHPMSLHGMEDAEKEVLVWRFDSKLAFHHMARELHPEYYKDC

Key:
[1] = molecular target: HIV-1-LAI Nef (HIV-1 (strain LAI)) (UniProt P03406); experiment: co-IP; CHO cells cotransfected with HA-tagged Nef and ACOT8 constructs, 48 h; non-denaturing lysis buffer (10 mM Tris-HCl pH 7.5, 5 mM EDTA, 150 mM NaCl, 1% Triton X-100); anti-HA antibody overnight at 4 °C, protein G Dynabeads; blot with anti-ACOT8 antibody
[2] = molecular target: HIV-1-SF2 Nef (HIV-1 (strain SF2)) (UniProt P03407); experiment: as above

B1: human peroxisomal thioesterase 8 (ACOT8), wild type (enzyme, UniProt O14734 1-319)
chain: MSSPQAPEDGQGCGDRGDPPGDLRSVLVTTVLNLEPLDEDLFRGRHYWVPAKRLFGGQIVGQALVAAAKSVSEDVHVHSLHCYFVRAGDPKLPVLYQVERTRTGSSFSVRSVKAVQHGKPIFICQASFQQAQPSPMQHQFSMPTVPPPEELLDCETLIDQYLRDPNLQKRYPLALNRIAAQEVPIEIKPVNPSPLSQLQRMEPKQMFWVRARGYIGEGDMKMHCCVAAYISDYAFLGTALLPHQWQHKVHFMVSLDHSMWFHAPFRADHWMLYECESPWAGGSRGLVHGRLWRQDGVLAVTCAQEGVIRVKPQVSESKL
[1]
  binding: binds
[2]
  binding: no binding
